Measurements reported in article PMC4080449.
These are yes or no findings as the source states them, for the method shown. Binding seen in cells or lysates may run through a third protein. Some binding calls cover weakened binding; strength is not graded here. Where a sequence is shown, tags or fusion partners need not be part of it.

The chains behind the UniProt entries cited, without tags or fusion partners.
UniProt Q9HAU4: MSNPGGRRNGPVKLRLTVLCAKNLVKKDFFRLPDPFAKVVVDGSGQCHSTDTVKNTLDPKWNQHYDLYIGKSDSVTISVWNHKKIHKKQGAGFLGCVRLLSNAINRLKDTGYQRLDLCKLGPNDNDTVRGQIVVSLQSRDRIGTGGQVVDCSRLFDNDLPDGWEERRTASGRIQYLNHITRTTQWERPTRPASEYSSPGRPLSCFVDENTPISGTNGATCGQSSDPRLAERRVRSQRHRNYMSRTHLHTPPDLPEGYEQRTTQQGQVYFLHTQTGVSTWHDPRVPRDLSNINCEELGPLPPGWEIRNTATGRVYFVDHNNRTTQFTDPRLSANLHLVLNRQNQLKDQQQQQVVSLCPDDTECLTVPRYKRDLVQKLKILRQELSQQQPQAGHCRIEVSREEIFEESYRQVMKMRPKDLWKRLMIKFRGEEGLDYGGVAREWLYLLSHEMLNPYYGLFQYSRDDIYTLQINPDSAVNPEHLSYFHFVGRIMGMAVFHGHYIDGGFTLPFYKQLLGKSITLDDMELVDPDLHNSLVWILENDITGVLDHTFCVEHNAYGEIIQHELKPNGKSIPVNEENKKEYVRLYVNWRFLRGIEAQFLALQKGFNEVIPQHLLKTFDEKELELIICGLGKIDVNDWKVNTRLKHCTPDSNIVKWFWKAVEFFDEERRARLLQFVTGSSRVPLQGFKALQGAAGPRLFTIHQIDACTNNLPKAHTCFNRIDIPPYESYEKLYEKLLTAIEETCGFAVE
UniProt Q9HCE7: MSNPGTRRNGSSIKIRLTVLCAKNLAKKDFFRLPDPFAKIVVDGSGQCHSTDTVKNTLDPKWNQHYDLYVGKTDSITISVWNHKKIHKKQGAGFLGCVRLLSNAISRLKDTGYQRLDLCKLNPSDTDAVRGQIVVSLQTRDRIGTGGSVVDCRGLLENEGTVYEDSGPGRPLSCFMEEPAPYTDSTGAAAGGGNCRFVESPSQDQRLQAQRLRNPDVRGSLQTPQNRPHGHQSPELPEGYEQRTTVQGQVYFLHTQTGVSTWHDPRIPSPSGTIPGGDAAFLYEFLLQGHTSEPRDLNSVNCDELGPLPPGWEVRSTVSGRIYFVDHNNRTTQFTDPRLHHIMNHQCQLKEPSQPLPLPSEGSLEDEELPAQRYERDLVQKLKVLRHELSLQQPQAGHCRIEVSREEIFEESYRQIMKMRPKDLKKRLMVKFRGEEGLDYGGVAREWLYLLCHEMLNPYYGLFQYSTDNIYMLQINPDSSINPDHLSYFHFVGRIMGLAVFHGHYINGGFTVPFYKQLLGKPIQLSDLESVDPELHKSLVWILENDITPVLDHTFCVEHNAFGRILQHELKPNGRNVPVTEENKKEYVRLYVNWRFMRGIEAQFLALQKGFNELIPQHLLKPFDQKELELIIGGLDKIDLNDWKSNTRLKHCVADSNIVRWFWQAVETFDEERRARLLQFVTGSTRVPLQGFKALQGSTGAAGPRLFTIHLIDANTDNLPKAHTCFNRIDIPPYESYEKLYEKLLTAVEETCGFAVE

Molecular target: T1, Ptch1-CFP (mouse) (UniProt Q61115)
T1 sequence: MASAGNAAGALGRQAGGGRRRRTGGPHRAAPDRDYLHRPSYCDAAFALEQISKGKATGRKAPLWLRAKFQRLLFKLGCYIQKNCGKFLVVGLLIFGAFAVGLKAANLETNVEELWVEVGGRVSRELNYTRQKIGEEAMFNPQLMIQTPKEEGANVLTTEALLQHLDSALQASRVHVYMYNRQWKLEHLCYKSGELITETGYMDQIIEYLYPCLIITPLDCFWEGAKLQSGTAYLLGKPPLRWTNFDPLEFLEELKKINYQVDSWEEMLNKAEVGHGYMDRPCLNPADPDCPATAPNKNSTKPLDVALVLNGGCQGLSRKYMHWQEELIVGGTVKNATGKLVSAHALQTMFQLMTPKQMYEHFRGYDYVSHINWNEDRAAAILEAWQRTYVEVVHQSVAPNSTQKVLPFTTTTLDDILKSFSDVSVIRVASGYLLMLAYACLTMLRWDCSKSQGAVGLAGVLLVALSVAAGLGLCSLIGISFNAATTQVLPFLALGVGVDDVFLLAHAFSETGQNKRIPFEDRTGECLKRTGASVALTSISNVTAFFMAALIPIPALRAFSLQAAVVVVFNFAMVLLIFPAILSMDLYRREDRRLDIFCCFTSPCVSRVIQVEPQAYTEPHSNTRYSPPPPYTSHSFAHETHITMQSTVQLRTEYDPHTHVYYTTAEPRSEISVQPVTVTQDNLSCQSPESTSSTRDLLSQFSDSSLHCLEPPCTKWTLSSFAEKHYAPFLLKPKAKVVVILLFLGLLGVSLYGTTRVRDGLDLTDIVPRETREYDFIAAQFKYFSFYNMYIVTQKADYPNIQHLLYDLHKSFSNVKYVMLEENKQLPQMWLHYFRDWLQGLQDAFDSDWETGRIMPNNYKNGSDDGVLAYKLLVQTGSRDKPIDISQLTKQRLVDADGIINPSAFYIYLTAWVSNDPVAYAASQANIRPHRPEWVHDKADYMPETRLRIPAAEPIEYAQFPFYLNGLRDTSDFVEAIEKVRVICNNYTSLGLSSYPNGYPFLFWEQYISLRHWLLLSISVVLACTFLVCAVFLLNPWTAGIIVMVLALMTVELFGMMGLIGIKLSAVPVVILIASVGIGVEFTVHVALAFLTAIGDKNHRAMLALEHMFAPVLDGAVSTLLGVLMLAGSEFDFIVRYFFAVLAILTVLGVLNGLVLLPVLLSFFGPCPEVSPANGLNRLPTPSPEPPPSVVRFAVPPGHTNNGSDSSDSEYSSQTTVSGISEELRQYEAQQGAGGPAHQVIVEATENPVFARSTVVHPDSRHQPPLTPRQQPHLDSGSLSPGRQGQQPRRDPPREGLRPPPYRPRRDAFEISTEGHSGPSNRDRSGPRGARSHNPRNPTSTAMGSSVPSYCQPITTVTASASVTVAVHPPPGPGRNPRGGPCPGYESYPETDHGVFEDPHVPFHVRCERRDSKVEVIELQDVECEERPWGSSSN
Assay: FRET or BRET; CFP/YFP sensitized-emission FRET (N-FRET) by confocal microscopy in transfected MEFs; also with ShhN or control conditioned medium for 2 hr

Substance	binding
Smurf2-YFP (from UniProt Q9HAU4 1-748) (enzyme)	binds
Smurf1-YFP (from UniProt Q9HCE7 1-757) (enzyme)	binds
